Test results taken from US5798442A, “Peptidyl derivatives as inhibitors of pro-apoptotic cysteine proteinases” (Merck Frosst Canada, Inc., priority 1995, dated 1998).
Not every detail of the peptide structures is certain; ends, links or a residue may be inferred.

Tested on: nuclei from non-apoptotic osteosarcoma cells
Assay type: cell-based, human
Conditions: day 7 apoptotic cytosol + day 3 nuclei

CC(=O)N[C@@H](Cc1ccc(O)cc1)C(=O)N[C@H](C(=O)N[C@@H](C)C(=O)N[C@H](C=O)CC(=O)O)C(C)C [Ac-YVAD-CHO]
attenuation of morphological changes (in vitro apoptosis): not
